Compound in this experiment: CC1Cc2ccccc2N1C(=O)C1CCCN(C1)C(=O)CCl (mixture of isomers) [TRIM25 ligand 11 (diastereomer mixture)]
As to the kind of experiment: probe-labelled cysteine peptide fold change vs DMSO (competition) (log2 fold change); higher = less target engagement (more negative = stronger competition). As to conditions: THP-1, incubation time: 4 h.

The list shows a part of the results.
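Also: competitive chemoproteomic profiling in live THP-1 cells with an iodoacetamide desthiobiotin (IA-DTB) probe, comparing probe-labelled peptide intensities in compound-treated cells against DMSO-treated controls.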

Regarding “CLTC_Q00610_824_VNPSRLPVVIGGLLDVDCSEDVIK (UniProt Q00610)”, the “probe-labelled cysteine peptide fold change” value is, setting by setting: (10 µM) 0.043; (50 µM) 0.185.

“CHAF1A_Q13111_710_VLQQFAACFLETLPAQEEQTPK (UniProt Q13111)”: the “probe-labelled cysteine peptide fold change” value is, setting by setting: (10 µM) 0.0507; (50 µM) 0.0536.

For “CLTCL1_P53675_918_DPHLACVAYER (UniProt P53675)”, the “probe-labelled cysteine peptide fold change” value (10 µM) came to 0.0446 and the “probe-labelled cysteine peptide fold change” value (50 µM) is -0.112.

“CLCN3_P51790_733_VCFAQHTPSLPAESPRPLK (UniProt P51790)”: the “probe-labelled cysteine peptide fold change” value by setting is: (10 µM) 0.0602; (50 µM) 0.0245.

“CIT_O14578_1392_CLECQVMCHPK (UniProt O14578)”: the “probe-labelled cysteine peptide fold change” value reads like this: (10 µM) -0.0102; (50 µM) 0.126.

With “CIAO2B_Q9Y3D0_158_VAAALENTHLLEVVNQCLSAR (UniProt Q9Y3D0)”, the “probe-labelled cysteine peptide fold change” value is, setting by setting: (10 µM) -0.226; (50 µM) -0.22.

Turning to “CHORDC1_Q9UHD1_5_ALLCYNR (UniProt Q9UHD1)”, the “probe-labelled cysteine peptide fold change” value runs as follows: (10 µM) -0.0447; (50 µM) 0.458.

Turning to “CHD6_Q8TD26_975_FCEEDIDQILQR (UniProt Q8TD26)”, the “probe-labelled cysteine peptide fold change” value (10 µM) worked out at 0.16 and the “probe-labelled cysteine peptide fold change” value (50 µM) turned out to be 0.102.

On to “CHML_P26374_390_FGNTPFLFPLYGQGEIPQGFCR (UniProt P26374)”, for which the “probe-labelled cysteine peptide fold change” value runs as follows: (10 µM) -0.369; (50 µM) 0.227.

“CHD1_O14646_497_DYQLNGLNWLAHSWCK (UniProt O14646)”: the “probe-labelled cysteine peptide fold change” value by setting is: (10 µM) 0.0432; (50 µM) 0.129.

For the target “CLTC_Q00610_1565_RECFGACLFTCYDLLRPDVVLETAWR (UniProt Q00610)”, the “probe-labelled cysteine peptide fold change” value was 0.367 (10 µM) and 0.182 (50 µM).

In the case of “CLASP2_O75122_129_SLLVAGAAQYDCFFQHLR (UniProt O75122)”, the “probe-labelled cysteine peptide fold change” value by setting is: (10 µM) -0.222; (50 µM) 0.139.

Turning to “CLUH_O75153_333_IATPFQVYSWTAPQAEHAMDCVR (UniProt O75153)”, the “probe-labelled cysteine peptide fold change” value was -0.222 (10 µM) and -0.317 (50 µM).

For the target “CFL1_P23528_139_HELQANCYEEVKDR (UniProt P23528)”, the “probe-labelled cysteine peptide fold change” value is, setting by setting: (10 µM) -0.0231; (50 µM) 0.184.

In the case of “CHTF8_P0CG13_83_HTPGDQDCDELGR (UniProt P0CG13)”, the “probe-labelled cysteine peptide fold change” value (10 µM) worked out at 0.377 and the “probe-labelled cysteine peptide fold change” value (50 µM) is 0.229.

Take “CHCHD3_Q9NX63_112_ERICSEEER (UniProt Q9NX63)”: the “probe-labelled cysteine peptide fold change” value is, setting by setting: (10 µM) -0.235; (50 µM) -0.228.

On to “CHD7_Q9P2D1_1101_CVVIDEAHR (UniProt Q9P2D1)”, for which the “probe-labelled cysteine peptide fold change” value (10 µM) was determined as 0.0726 and the “probe-labelled cysteine peptide fold change” value (50 µM) was 0.0113.

On to “CLTC_Q00610_870_IHEGCEEPATHNALAK (UniProt Q00610)”, for which the “probe-labelled cysteine peptide fold change” value runs as follows: (10 µM) 0.064; (50 µM) -0.0249.

Regarding “CHD4_Q14839_1018_CCNHPYLFPVAAMEAPK (UniProt Q14839)”, the “probe-labelled cysteine peptide fold change” value runs as follows: (10 µM) -0.00857; (50 µM) 0.0882.

As to “CISD3_P0C7P0_71_KQPFCDGSHFFQR (UniProt P0C7P0)”, the “probe-labelled cysteine peptide fold change” value (10 µM) worked out at 0.0265 and the “probe-labelled cysteine peptide fold change” value (50 µM) was found to be 0.0656.

With “CLASP1_Q7Z460_173_IVPHICNLLGDPNSQVR (UniProt Q7Z460)”, the “probe-labelled cysteine peptide fold change” value is -0.0937 (10 µM) and 0.0418 (50 µM).

As to “CIZ1_Q9ULV3_687_QSLRPFCTVCNR (UniProt Q9ULV3)”, the “probe-labelled cysteine peptide fold change” value runs as follows: (10 µM) -0.128; (50 µM) 0.068.

For the target “CKAP5_Q14008_1360_AECLEELGCLVESYGMNVCQPTPGK (UniProt Q14008)”, the “probe-labelled cysteine peptide fold change” value runs as follows: (10 µM) -0.0127; (50 µM) 0.116.

“CHD4_Q14839_1827_FAEVECLAESHQHLSK (UniProt Q14839)”: the “probe-labelled cysteine peptide fold change” value is, setting by setting: (10 µM) 0.119; (50 µM) -0.223.

Regarding “CLIC1_O00299_59_LCPGGQLPFLLYGTEVHTDTNK (UniProt O00299)”, the “probe-labelled cysteine peptide fold change” value is, setting by setting: (10 µM) 0.214; (50 µM) 0.0937.

As for “CHD4_Q14839_1019_CCNHPYLFPVAAMEAPK (UniProt Q14839)”, the “probe-labelled cysteine peptide fold change” value runs as follows: (10 µM) -0.112; (50 µM) -0.0204.

Consider “CES1_P23141_274_KGDVKPLAEQIAITAGCK (UniProt P23141)”, for which the “probe-labelled cysteine peptide fold change” value is, setting by setting: (10 µM) 0.0873; (50 µM) 0.147.

As for “CLEC11A_Q9Y240_177_LEGCLK (UniProt Q9Y240)”, the “probe-labelled cysteine peptide fold change” value is 0.182 (10 µM) and 0.258 (50 µM).

On to “CLK2_P49760_180_VVQCVDHR (UniProt P49760)”, for which the “probe-labelled cysteine peptide fold change” value was determined as 0.172 (10 µM) and 0.129 (50 µM).

Regarding “CINP_Q9BW66_81_VCLEYNEELEK (UniProt Q9BW66)”, the “probe-labelled cysteine peptide fold change” value was -0.0595 (10 µM) and -0.0128 (50 µM).

With “CFAP20_Q9Y6A4_119_VKPFICTMPMR (UniProt Q9Y6A4)”, the “probe-labelled cysteine peptide fold change” value reads like this: (10 µM) -0.021; (50 µM) -0.115.

In the case of “CIR1_Q86X95_10_SFANFMCK (UniProt Q86X95)”, the “probe-labelled cysteine peptide fold change” value is -0.0223 (10 µM) and -0.206 (50 µM).

Values taken from the supplement of paper PMC12067093, “Discovery and optimisation of a covalent ligand for TRIM25 and its application to targeted protein ubiquitination” (Chemical Science, 2025).
